# Assay results published in the supplement of paper PMC10849652.
# By UniProt entry, the sequences of proteins in these tests, tags left out. Where a name states a change or a piece, a line headed by the entry shows the natural chain unless it says otherwise.
# UniProt Q96F05: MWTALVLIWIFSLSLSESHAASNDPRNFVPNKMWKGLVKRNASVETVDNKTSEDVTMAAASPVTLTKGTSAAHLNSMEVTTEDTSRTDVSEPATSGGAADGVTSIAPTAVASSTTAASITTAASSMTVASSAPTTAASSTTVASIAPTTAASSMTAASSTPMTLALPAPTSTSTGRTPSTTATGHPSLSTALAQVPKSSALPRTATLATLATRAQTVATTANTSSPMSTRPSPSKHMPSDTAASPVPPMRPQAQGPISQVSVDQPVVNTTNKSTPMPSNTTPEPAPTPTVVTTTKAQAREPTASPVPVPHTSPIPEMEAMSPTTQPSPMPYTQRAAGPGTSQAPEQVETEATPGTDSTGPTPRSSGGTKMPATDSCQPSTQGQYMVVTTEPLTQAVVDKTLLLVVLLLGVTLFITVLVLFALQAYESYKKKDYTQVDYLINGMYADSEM
# UniProt Q96LT7: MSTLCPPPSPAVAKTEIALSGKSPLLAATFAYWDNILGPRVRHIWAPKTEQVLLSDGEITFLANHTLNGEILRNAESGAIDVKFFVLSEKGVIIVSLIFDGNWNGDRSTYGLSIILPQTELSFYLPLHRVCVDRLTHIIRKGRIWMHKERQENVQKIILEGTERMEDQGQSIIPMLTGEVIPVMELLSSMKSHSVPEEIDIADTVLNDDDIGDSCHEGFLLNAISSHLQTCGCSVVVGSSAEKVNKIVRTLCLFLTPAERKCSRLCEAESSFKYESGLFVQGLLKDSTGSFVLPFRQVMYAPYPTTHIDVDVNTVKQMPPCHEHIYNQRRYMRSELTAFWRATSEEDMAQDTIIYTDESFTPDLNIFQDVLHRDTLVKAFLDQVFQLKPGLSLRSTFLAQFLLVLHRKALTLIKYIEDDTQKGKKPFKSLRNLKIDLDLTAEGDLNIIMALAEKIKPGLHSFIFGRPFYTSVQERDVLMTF
# UniProt P04003: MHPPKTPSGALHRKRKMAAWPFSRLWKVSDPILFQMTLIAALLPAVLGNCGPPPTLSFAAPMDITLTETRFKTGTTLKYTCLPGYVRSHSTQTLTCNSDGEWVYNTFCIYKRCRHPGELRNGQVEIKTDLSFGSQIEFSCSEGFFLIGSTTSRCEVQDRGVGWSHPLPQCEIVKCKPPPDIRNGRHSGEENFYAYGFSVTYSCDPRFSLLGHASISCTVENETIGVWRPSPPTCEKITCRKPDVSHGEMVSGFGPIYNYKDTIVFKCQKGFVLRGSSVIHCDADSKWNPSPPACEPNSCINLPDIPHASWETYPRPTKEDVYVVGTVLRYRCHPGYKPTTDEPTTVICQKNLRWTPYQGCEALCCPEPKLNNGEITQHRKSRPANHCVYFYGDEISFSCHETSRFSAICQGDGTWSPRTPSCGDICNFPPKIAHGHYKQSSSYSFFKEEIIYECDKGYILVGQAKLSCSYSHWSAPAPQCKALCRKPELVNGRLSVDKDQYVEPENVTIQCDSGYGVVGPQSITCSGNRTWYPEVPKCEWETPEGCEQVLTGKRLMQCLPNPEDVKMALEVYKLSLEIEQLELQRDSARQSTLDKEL
# UniProt Q96MD7: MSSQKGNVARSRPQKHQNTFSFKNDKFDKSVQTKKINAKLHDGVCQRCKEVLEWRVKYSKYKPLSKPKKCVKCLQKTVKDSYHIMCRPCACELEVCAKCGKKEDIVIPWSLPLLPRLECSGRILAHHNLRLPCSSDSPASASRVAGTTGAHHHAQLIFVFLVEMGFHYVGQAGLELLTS
# UniProt Q9BRD0: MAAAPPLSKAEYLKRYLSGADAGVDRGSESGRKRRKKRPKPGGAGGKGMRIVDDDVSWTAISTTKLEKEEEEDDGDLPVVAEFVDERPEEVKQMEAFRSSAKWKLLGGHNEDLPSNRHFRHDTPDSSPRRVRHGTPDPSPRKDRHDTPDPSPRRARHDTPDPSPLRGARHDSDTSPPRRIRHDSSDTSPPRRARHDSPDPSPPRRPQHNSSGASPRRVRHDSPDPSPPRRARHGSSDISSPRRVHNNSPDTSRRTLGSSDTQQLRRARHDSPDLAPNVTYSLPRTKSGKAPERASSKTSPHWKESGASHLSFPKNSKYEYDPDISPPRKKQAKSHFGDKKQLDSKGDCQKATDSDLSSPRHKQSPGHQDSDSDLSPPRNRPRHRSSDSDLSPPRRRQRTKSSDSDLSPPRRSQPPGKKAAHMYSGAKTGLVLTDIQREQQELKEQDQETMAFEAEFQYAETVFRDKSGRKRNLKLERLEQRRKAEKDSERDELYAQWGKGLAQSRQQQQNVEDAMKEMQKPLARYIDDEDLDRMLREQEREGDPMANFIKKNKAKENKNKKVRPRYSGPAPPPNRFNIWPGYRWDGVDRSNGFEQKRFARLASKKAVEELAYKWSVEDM
# UniProt Q01518, whole entry, looked up: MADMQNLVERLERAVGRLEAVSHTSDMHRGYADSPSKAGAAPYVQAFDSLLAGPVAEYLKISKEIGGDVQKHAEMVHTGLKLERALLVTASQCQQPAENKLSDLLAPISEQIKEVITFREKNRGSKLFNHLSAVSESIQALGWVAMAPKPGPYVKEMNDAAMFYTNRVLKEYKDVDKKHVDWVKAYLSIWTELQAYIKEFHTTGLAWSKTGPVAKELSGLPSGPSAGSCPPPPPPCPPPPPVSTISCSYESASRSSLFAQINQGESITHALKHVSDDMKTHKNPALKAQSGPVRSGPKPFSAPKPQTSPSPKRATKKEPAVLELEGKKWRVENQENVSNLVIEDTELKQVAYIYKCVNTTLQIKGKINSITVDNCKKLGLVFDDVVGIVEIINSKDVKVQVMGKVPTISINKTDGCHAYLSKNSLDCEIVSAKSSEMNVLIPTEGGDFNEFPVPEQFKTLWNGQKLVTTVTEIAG
# UniProt Q6PH81: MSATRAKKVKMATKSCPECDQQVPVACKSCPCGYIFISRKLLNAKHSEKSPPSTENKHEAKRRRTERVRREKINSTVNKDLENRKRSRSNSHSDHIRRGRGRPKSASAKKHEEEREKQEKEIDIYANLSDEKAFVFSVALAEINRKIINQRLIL
# UniProt Q13554, whole entry, looked up: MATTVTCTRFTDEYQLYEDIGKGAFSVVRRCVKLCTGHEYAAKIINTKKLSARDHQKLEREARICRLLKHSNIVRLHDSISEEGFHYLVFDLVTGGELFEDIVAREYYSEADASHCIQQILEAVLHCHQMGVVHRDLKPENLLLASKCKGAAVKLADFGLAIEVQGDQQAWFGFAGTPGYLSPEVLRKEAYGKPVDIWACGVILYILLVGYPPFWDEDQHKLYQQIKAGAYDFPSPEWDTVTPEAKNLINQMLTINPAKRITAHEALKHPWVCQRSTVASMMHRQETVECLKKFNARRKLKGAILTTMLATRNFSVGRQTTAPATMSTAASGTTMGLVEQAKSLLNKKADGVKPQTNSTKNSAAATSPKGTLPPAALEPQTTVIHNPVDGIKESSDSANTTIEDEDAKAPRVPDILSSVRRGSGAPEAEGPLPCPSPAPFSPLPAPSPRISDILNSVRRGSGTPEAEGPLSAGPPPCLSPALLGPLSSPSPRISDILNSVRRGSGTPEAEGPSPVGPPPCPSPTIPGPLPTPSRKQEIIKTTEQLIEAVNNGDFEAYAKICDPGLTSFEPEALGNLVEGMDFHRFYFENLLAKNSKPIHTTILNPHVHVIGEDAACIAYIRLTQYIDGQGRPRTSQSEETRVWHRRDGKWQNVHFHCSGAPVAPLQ
# UniProt Q9NS00: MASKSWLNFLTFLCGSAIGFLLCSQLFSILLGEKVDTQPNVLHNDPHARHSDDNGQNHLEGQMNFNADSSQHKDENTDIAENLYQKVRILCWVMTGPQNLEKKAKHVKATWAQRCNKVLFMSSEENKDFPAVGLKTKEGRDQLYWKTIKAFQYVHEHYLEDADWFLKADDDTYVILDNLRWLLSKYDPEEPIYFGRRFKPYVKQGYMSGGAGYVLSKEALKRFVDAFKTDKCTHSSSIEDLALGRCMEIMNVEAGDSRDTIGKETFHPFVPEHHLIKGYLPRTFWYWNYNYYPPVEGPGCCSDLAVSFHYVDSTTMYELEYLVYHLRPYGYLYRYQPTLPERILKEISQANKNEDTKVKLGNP
# UniProt Q6P5X5: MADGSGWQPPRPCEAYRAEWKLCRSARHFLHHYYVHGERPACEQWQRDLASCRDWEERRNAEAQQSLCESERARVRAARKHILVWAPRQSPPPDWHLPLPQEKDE
# UniProt Q7Z7L8: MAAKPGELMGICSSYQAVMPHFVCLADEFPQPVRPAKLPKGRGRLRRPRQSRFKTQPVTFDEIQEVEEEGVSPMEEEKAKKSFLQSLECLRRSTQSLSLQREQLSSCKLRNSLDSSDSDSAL
# UniProt Q8IYL3: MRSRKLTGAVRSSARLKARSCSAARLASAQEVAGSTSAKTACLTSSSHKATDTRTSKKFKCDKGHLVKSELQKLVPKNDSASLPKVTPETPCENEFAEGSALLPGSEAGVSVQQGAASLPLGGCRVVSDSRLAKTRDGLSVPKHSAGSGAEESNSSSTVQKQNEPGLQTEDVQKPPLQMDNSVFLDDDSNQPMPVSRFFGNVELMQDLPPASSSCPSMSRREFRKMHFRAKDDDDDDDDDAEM
# UniProt Q9Y297: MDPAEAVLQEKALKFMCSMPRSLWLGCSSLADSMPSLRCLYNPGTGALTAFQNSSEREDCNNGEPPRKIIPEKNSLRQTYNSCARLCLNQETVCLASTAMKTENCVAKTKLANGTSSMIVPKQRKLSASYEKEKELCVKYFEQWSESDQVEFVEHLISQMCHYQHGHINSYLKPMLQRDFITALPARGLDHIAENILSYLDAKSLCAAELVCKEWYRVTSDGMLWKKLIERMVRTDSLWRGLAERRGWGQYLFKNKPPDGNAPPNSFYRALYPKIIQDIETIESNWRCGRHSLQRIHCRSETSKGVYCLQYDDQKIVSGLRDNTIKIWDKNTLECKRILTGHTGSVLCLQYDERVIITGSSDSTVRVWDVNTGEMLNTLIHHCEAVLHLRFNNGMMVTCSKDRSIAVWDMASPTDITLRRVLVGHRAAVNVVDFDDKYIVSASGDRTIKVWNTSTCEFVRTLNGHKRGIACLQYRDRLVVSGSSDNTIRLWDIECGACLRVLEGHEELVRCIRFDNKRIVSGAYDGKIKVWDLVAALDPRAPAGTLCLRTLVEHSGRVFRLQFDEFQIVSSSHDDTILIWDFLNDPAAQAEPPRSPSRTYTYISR
# This is one part of the list.
# Columns and labels:
# Test in all cases: log2 fold change, soluble protein after heating vs DMSO (PISA); higher = thermal stabilisation; K562 lysate, 10 uM; active = over 0.2 and 3.5 SD of the protein, either way, in both replicates (recomputed)
# alvocidib = compound: CN1CC[C@H](c2c(O)cc(O)c3c(=O)cc(-c4ccccc4Cl)oc23)[C@H](O)C1 [alvocidib]
# Summary of the method: (§1)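 To prepare the extract, K562 pellets were dounce-homogenised in PBS pH 7.4 with 1 mM MgCl2, giving crude material at 1 mg/mL protein. This was treated with 10 μM compound for 30 min, then heated in aliquots for 3 min over 48°C-58°C before pooling and addition of NP-40 to 0.5% at 4°C. Centrifugation at 21,000xg for 90 min left soluble protein in the supernatant, which TMTpro 16plex LC-MS/MS quantified with equalised channel sums. Results are log-two fold changes in thermal stability compared with solvent controls, from duplicates.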
# Tubastatin A = compound: CN1CCc2c(c3ccccc3n2Cc2ccc(C(=O)NO)cc2)C1 [Tubastatin A]
# Summary of the method: as §1
# crizotinib = compound: C[C@@H](Oc1cc(-c2cnn(C3CCNCC3)c2)cnc1N)c1c(Cl)ccc(F)c1Cl [crizotinib]
# Summary of the method: as §1
# [1] = compound: C[C@H](C1=CC=C(C=C1)C(=O)NC2=C3C=CNC3=NC=C2)N
# Summary of the method: as §1
# gandotinib = compound: Cc1cc(Nc2cc(CN3CCOCC3)c3nc(C)c(Cc4ccc(Cl)cc4F)n3n2)n[nH]1 [gandotinib]
# Summary of the method: as §1
# doramapimod = compound: Cc1ccc(-n2nc(C(C)(C)C)cc2NC(=O)Nc2ccc(OCCN3CCOCC3)c3ccccc23)cc1 [doramapimod]
# Summary of the method: as §1
# [2] = compound: Cc1cccc(CC(=O)N2CCc3c2ccc(-c2cn(C)c4ncnc(N)c24)c3F)n1
# Summary of the method: as §1
# [3] = compound: CNC(=O)C1=CC=CC=C1NC2=NC(=NC=C2Cl)NC3=C(C=C(C=C3)N4CCOCC4)OC
# Summary of the method: as §1
# [4] = compound: CNc1nc(-c2ccc3c(N)n[nH]c3c2)cc(N2C[C@@H](C(=O)NC3CCCCC3)CC[C@H]2C)n1
# Summary of the method: as §1
# encorafenib = compound: COC(=O)N[C@@H](C)CNc1nccc(-c2cn(C(C)C)nc2-c2cc(Cl)cc(NS(C)(=O)=O)c2F)n1 [encorafenib]
# Summary of the method: as §1
# [5] = compound: COC(=O)[C@H](CCSC)NC(=O)C1=C(C=C(C=C1)NC[C@H](CS)N)C2=CC=CC=C2
# Summary of the method: as §1
# alisertib = compound: COc1cc(Nc2ncc3c(n2)-c2ccc(Cl)cc2C(c2c(F)cccc2OC)=NC3)ccc1C(=O)O [alisertib]
# Summary of the method: as §1
# [6] = compound: COc1cc2nc(-c3cc(F)ccc3O)nc(N[C@@H]3CNC[C@H]3C(C)(C)O)c2cc1OC
# Summary of the method: as §1
# gefitinib = compound: COc1cc2ncnc(Nc3ccc(F)c(Cl)c3)c2cc1OCCCN1CCOCC1 [gefitinib]
# Summary of the method: as §1
# lapatinib = compound: CS(=O)(=O)CCNCc1ccc(-c2ccc3ncnc(Nc4ccc(OCc5cccc(F)c5)c(Cl)c4)c3c2)o1 [lapatinib]
# Summary of the method: as §1
# pictilisib = compound: CS(=O)(=O)N1CCN(Cc2cc3nc(-c4cccc5[nH]ncc45)nc(N4CCOCC4)c3s2)CC1 [pictilisib]
# Summary of the method: as §1
# duvelisib = compound: C[C@H](Nc1ncnc2nc[nH]c12)c1cc2cccc(Cl)c2c(=O)n1-c1ccccc1 [duvelisib]
# Summary of the method: as §1
# tozasertib = compound: Cc1cc(Nc2cc(N3CCN(C)CC3)nc(Sc3ccc(NC(=O)C4CC4)cc3)n2)n[nH]1 [tozasertib]
# Summary of the method: as §1
# bafetinib = compound: Cc1ccc(NC(=O)c2ccc(CN3CC[C@H](N(C)C)C3)c(C(F)(F)F)c2)cc1Nc1nccc(-c2cncnc2)n1 [bafetinib]
# Summary of the method: as §1
# defactinib = compound: CNC(=O)c1ccc(Nc2ncc(C(F)(F)F)c(NCc3nccnc3N(C)S(C)(=O)=O)n2)cc1 [defactinib]
# Summary of the method: as §1
Target,log2 fold change (alvocidib),log2 fold change (Tubastatin A),log2 fold change (crizotinib),log2 fold change [1],log2 fold change (gandotinib),log2 fold change (doramapimod),log2 fold change [2],log2 fold change [3],log2 fold change [4],log2 fold change (encorafenib),log2 fold change [5],log2 fold change (alisertib),log2 fold change [6],log2 fold change (gefitinib),log2 fold change (lapatinib),log2 fold change (pictilisib),log2 fold change (duvelisib),log2 fold change (tozasertib),log2 fold change (bafetinib),log2 fold change (defactinib)
C11orf24 (UniProt Q96F05),inactive: -0.086,inactive: -0.371,inactive: -0.076,inactive: 0.063,inactive: 0.019,inactive: -0.013,inactive: -0.185,,,,,,,,,,,,,
C9orf72 (UniProt Q96LT7),inactive: 0.001,inactive: 0,inactive: 0.082,inactive: -0.075,inactive: 0.035,inactive: 0.03,inactive: -0.009,inactive: -0.036,inactive: 0.058,inactive: 0.125,active: 0.259,inactive: 0.014,inactive: 0.102,inactive: -0.106,inactive: 0.061,inactive: -0.112,inactive: -0.072,inactive: -0.196,inactive: -0.043,
CAD (UniProt H7BZB3),inactive: 0.005,,,inactive: 0.069,inactive: 0.036,,inactive: 0.057,inactive: 0.28,,inactive: 0.113,inactive: 0.059,,,,,,,inactive: -0.062,,inactive: 0.036
C4BPA (UniProt P04003),inactive: -0.055,inactive: 0.039,inactive: 0.089,inactive: -0.051,inactive: 0.084,inactive: 0.056,inactive: 0.034,inactive: -0.016,inactive: 0.144,,,inactive: -0.045,inactive: -0.019,inactive: 0.031,inactive: -0.035,,inactive: -0.117,,,inactive: -0.009
C9orf85 isoform 1 (UniProt Q96MD7),inactive: 0.018,inactive: 0.032,,inactive: 0.004,inactive: -0.001,,inactive: -0.003,,inactive: 0.204,,,inactive: 0.007,,inactive: 0.025,,inactive: 0.113,inactive: 0.017,,inactive: -0.017,
BUD13 (UniProt Q9BRD0),inactive: 0.033,inactive: -0.015,inactive: -0.044,inactive: -0.053,inactive: 0.045,inactive: 0.014,inactive: 0.114,inactive: -0.022,inactive: 0.068,inactive: 0.007,inactive: 0.004,inactive: 0.017,,inactive: 0.108,,inactive: 0.104,inactive: 0.08,inactive: 0.008,inactive: -0.134,
CAP1 isoform 2 (UniProt Q01518),inactive: 0.031,inactive: 0.213,inactive: -0.056,inactive: -0.03,inactive: 0.075,inactive: 0.072,inactive: -0.087,inactive: -0.051,inactive: -0.041,,,,,,,inactive: -0.018,inactive: -0.012,,inactive: -0.027,
C16orf87 (UniProt Q6PH81),inactive: -0.078,inactive: 0.19,inactive: -0.067,inactive: 0.252,inactive: -0.002,inactive: 0.166,inactive: 0.033,,inactive: 0.038,inactive: -0.102,inactive: 0.051,,inactive: -0.043,,inactive: -0.021,inactive: 0.039,inactive: -0.009,inactive: -0.192,inactive: 0.07,inactive: -0.105
CAMK2B (UniProt Q13554),inactive: 0.318,inactive: -0.035,,inactive: -0.045,inactive: 0.072,inactive: -0.03,inactive: 0.055,,inactive: -0.069,inactive: -0.045,inactive: 0.067,inactive: 0.001,inactive: -0.005,inactive: 0.026,inactive: 0.024,inactive: 0.053,inactive: -0.011,inactive: -0.046,inactive: 0.003,inactive: 0.009
C1GALT1 (UniProt Q9NS00),inactive: -0.022,inactive: 0.059,inactive: -0.066,inactive: -0.072,inactive: -0.013,inactive: 0.081,inactive: -0.067,inactive: 0.121,inactive: -0.02,,,,inactive: 0.038,,inactive: 0.241,,inactive: -0.043,,,inactive: 0.003
C22orf39 (UniProt Q6P5X5),inactive: 0.014,inactive: -0.001,,inactive: 0.022,inactive: -0.003,,inactive: 0.082,,inactive: 0.029,inactive: -0.128,inactive: 0.013,inactive: 0.087,inactive: 0.118,inactive: 0,inactive: -0.173,inactive: -0.014,inactive: 0.043,inactive: 0.023,inactive: -0.089,inactive: 0.096
C11orf96 (UniProt Q7Z7L8),inactive: -0.032,inactive: -0.037,inactive: -0.004,inactive: -0.025,inactive: 0.036,inactive: -0.073,inactive: 0.107,inactive: 0.078,inactive: 0.156,,,inactive: -0.031,inactive: -0.046,inactive: 0.017,inactive: -0.044,inactive: -0.026,inactive: -0.041,,inactive: -0.027,
C1orf174 (UniProt Q8IYL3),inactive: 0.033,inactive: 0.05,inactive: 0.046,inactive: -0.054,inactive: 0.042,inactive: -0.031,inactive: -0.01,,inactive: 0.042,,,,inactive: 0.028,,inactive: -0.016,inactive: -0.04,inactive: 0.035,,inactive: 0.051,inactive: 0.015
BTRC (UniProt Q9Y297),inactive: -0.05,inactive: -0.019,,inactive: 0.018,inactive: 0.073,,inactive: 0.065,inactive: -0.049,,inactive: 0.035,inactive: 0.172,inactive: -0.022,inactive: 0.096,inactive: -0.058,inactive: 0.01,inactive: -0.008,,inactive: -0.01,inactive: -0.027,inactive: -0.018

# An excerpt of these results, bar-delimited:
Target | log2 fold change (alvocidib) | log2 fold change (Tubastatin A) | log2 fold change (crizotinib) | log2 fold change [1] | log2 fold change (gandotinib) | log2 fold change (doramapimod) | log2 fold change [2] | log2 fold change [3] | log2 fold change [4] | log2 fold change (encorafenib) | log2 fold change [5] | log2 fold change (alisertib) | log2 fold change [6] | log2 fold change (gefitinib) | log2 fold change (lapatinib) | log2 fold change (pictilisib) | log2 fold change (duvelisib) | log2 fold change (tozasertib) | log2 fold change (bafetinib) | log2 fold change (defactinib)
C11orf24 (UniProt Q96F05) | inactive: -0.086 | inactive: -0.371 | inactive: -0.076 | inactive: 0.063 | inactive: 0.019 | inactive: -0.013 | inactive: -0.185 |  |  |  |  |  |  |  |  |  |  |  |  | 
C22orf39 (UniProt Q6P5X5) | inactive: 0.014 | inactive: -0.001 |  | inactive: 0.022 | inactive: -0.003 |  | inactive: 0.082 |  | inactive: 0.029 | inactive: -0.128 | inactive: 0.013 | inactive: 0.087 | inactive: 0.118 | inactive: 0 | inactive: -0.173 | inactive: -0.014 | inactive: 0.043 | inactive: 0.023 | inactive: -0.089 | inactive: 0.096
